# Data reported in the supplement of paper PMC8728848.
# The other results are listed elsewhere or left out.
# What was measured:
# Test in all cases: glycan array binding signal (z-score within array); higher = stronger binding
# Settings in all cases: glycan notation: IUPAC condensed, linker removed; mutation: D21K
# [1] = target: Fuc(a1-2)Gal6S(b1-3)GlcNAc
# In short: (§1)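 From the Consortium for Functional Glycomics database, 3228 arrays were curated, keeping only those whose protein sequence was available. Binding is given as a within-array Z-score averaged across arrays sharing a protein sequence and across linkers. Negative Z-scores can be read as non-binding.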
# [2] = target: Fuc(a1-2)Gal6S(b1-3)GlcNAc6S
# In short: as §1
# [3] = target: Fuc(a1-2)Gal6S(b1-4)Glc
# In short: as §1
# [4] = target: Fuc(a1-2)Gal6S(b1-4)Glc6S
# In short: as §1
# [5] = target: Fuc(a1-2)[Gal(a1-3)]Gal
# In short: as §1
# [6] = target: Fuc(a1-2)[Gal(a1-3)]Gal(b1-3)GalNAc
# In short: as §1
# [7] = target: Fuc(a1-2)[Gal(a1-3)]Gal(b1-3)GalNAc(b1-3)Gal(a1-4)Gal(b1-4)Glc
# In short: as §1
# [8] = target: Fuc(a1-2)[Gal(a1-3)]Gal(b1-3)GlcNAc
# In short: as §1
# [9] = target: Fuc(a1-2)[Gal(a1-3)]Gal(b1-3)GlcNAc(b1-2)Man(a1-3)[Fuc(a1-2)[Gal(a1-3)]Gal(b1-3)GlcNAc(b1-2)Man(a1-6)]Man(b1-4)GlcNAc(b1-4)GlcNAc
# In short: as §1
# [10] = target: Fuc(a1-2)[Gal(a1-3)]Gal(b1-3)GlcNAc(b1-2)Man(a1-3)[Fuc(a1-2)[Gal(a1-3)]Gal(b1-3)GlcNAc(b1-2)Man(a1-6)]Man(b1-4)GlcNAc(b1-4)[Fuc(a1-6)]GlcNAc
# In short: as §1
# [11] = target: Fuc(a1-2)[Gal(a1-3)]Gal(b1-3)GlcNAc(b1-3)GalNAc
# In short: as §1
# [12] = target: Fuc(a1-2)[Gal(a1-3)]Gal(b1-3)GlcNAc(b1-6)GalNAc
# In short: as §1
# [13] = target: Fuc(a1-2)[Gal(a1-3)]Gal(b1-4)Glc
# In short: as §1
# [14] = target: Fuc(a1-2)[Gal(a1-3)]Gal(b1-4)GlcNAc
# In short: as §1
# [15] = target: Fuc(a1-2)[Gal(a1-3)]Gal(b1-4)GlcNAc(b1-2)Man
# In short: as §1
# [16] = target: Fuc(a1-2)[Gal(a1-3)]Gal(b1-4)GlcNAc(b1-2)Man(a1-3)[Fuc(a1-2)[Gal(a1-3)]Gal(b1-4)GlcNAc(b1-2)Man(a1-6)]Man(b1-4)GlcNAc(b1-4)GlcNAc
# In short: as §1
# [17] = target: Fuc(a1-2)[Gal(a1-3)]Gal(b1-4)GlcNAc(b1-2)Man(a1-3)[Fuc(a1-2)[Gal(a1-3)]Gal(b1-4)GlcNAc(b1-2)Man(a1-6)]Man(b1-4)GlcNAc(b1-4)[Fuc(a1-6)]GlcNAc
# In short: as §1
# [18] = target: Fuc(a1-2)[Gal(a1-3)]Gal(b1-4)GlcNAc(b1-3)GalNAc
# In short: as §1
# [19] = target: Fuc(a1-2)[Gal(a1-3)]Gal(b1-4)GlcNAc(b1-3)[Fuc(a1-2)[Gal(a1-3)]Gal(b1-4)GlcNAc(b1-6)]GalNAc
# In short: as §1
# [20] = target: Fuc(a1-2)[Gal(a1-3)]Gal(b1-4)GlcNAc(b1-6)GalNAc
# In short: as §1
# [21] = target: Fuc(a1-2)[Gal(a1-3)]Gal(b1-4)[Fuc(a1-3)]Glc
# In short: as §1
# [22] = target: Fuc(a1-2)[Gal(a1-3)]Gal(b1-4)[Fuc(a1-3)]GlcNAc
# In short: as §1
# [23] = target: Fuc(a1-2)[Gal(a1-3)]Gal(b1-4)[Fuc(a1-3)]GlcNAc(b1-3)GalNAc
# In short: as §1
# [24] = target: Fuc(a1-2)[Gal(a1-4)]Gal(b1-4)GlcNAc
# In short: as §1
# [25] = target: Fuc(a1-2)[GalNAc(a1-3)]Gal
# In short: as §1
# [26] = target: Fuc(a1-2)[GalNAc(a1-3)]Gal(b1-3)GalNAc(a1-3)[Fuc(a1-2)]Gal(b1-4)GlcNAc
# In short: as §1
# [27] = target: Fuc(a1-2)[GalNAc(a1-3)]Gal(b1-3)GalNAc(b1-3)Gal(a1-4)Gal(b1-4)Glc
# In short: as §1
# [28] = target: Fuc(a1-2)[GalNAc(a1-3)]Gal(b1-3)GlcNAc
# In short: as §1
# [29] = target: Fuc(a1-2)[GalNAc(a1-3)]Gal(b1-3)GlcNAc(b1-2)Man(a1-3)[Fuc(a1-2)[GalNAc(a1-3)]Gal(b1-3)GlcNAc(b1-2)Man(a1-6)]Man(b1-4)GlcNAc(b1-4)GlcNAc
# In short: as §1
# [30] = target: Fuc(a1-2)[GalNAc(a1-3)]Gal(b1-3)GlcNAc(b1-2)Man(a1-3)[Fuc(a1-2)[GalNAc(a1-3)]Gal(b1-3)GlcNAc(b1-2)Man(a1-6)]Man(b1-4)GlcNAc(b1-4)[Fuc(a1-6)]GlcNAc
# In short: as §1
# [31] = target: Fuc(a1-2)[GalNAc(a1-3)]Gal(b1-3)GlcNAc(b1-3)GalNAc
# In short: as §1
# [32] = target: Fuc(a1-2)[GalNAc(a1-3)]Gal(b1-3)GlcNAc(b1-6)GalNAc
# In short: as §1
# [33] = target: Fuc(a1-2)[GalNAc(a1-3)]Gal(b1-4)Glc
# In short: as §1
# [34] = target: Fuc(a1-2)[GalNAc(a1-3)]Gal(b1-4)GlcNAc
# In short: as §1
# [35] = target: Fuc(a1-2)[GalNAc(a1-3)]Gal(b1-4)GlcNAc(b1-2)Man
# In short: as §1
# [36] = target: Fuc(a1-2)[GalNAc(a1-3)]Gal(b1-4)GlcNAc(b1-2)Man(a1-3)[Fuc(a1-2)[GalNAc(a1-3)]Gal(b1-4)GlcNAc(b1-2)Man(a1-6)]Man(b1-4)GlcNAc(b1-4)GlcNAc
# In short: as §1
# [37] = target: Fuc(a1-2)[GalNAc(a1-3)]Gal(b1-4)GlcNAc(b1-2)Man(a1-3)[Fuc(a1-2)[GalNAc(a1-3)]Gal(b1-4)GlcNAc(b1-2)Man(a1-6)]Man(b1-4)GlcNAc(b1-4)[Fuc(a1-6)]GlcNAc
# In short: as §1
# [38] = target: Fuc(a1-2)[GalNAc(a1-3)]Gal(b1-4)GlcNAc(b1-3)Gal(b1-4)GlcNAc
# In short: as §1
# [39] = target: Fuc(a1-2)[GalNAc(a1-3)]Gal(b1-4)GlcNAc(b1-3)Gal(b1-4)GlcNAc(b1-3)Gal(b1-4)GlcNAc
# In short: as §1
# [40] = target: Fuc(a1-2)[GalNAc(a1-3)]Gal(b1-4)GlcNAc(b1-3)GalNAc
# In short: as §1
# [41] = target: Fuc(a1-2)[GalNAc(a1-3)]Gal(b1-4)GlcNAc(b1-3)[Fuc(a1-2)[GalNAc(a1-3)]Gal(b1-4)GlcNAc(b1-6)]GalNAc
# In short: as §1
# [42] = target: Fuc(a1-2)[GalNAc(a1-3)]Gal(b1-4)GlcNAc(b1-6)GalNAc
# In short: as §1
# [43] = target: Fuc(a1-2)[GalNAc(a1-3)]Gal(b1-4)[Fuc(a1-3)]GlcNAc
# In short: as §1
# [44] = target: Fuc(a1-2)[GalNAc(a1-3)]Gal(b1-4)[Fuc(a1-3)]GlcNAc(b1-3)GalNAc
# In short: as §1
# [45] = target: Fuc(a1-2)[GalNAc(a1-4)]Gal(b1-4)GlcNAc
# In short: as §1
binder,measurement,setting,value
KILRGVCKKIMRTFLRRISKKILTGKK [C7A (Sus scrofa)],glycan array binding signal (z-score),[1],0.866
same,glycan array binding signal (z-score),[2],1.91
same,glycan array binding signal (z-score),[3],-0.829
same,glycan array binding signal (z-score),[4],1.15
same,glycan array binding signal (z-score),[5],0.73
same,glycan array binding signal (z-score),[6],-0.24
same,glycan array binding signal (z-score),[7],0.004
same,glycan array binding signal (z-score),[8],-0.689
same,glycan array binding signal (z-score),[9],-0.537
same,glycan array binding signal (z-score),[10],0.82
same,glycan array binding signal (z-score),[11],-0.507
same,glycan array binding signal (z-score),[12],1.37
same,glycan array binding signal (z-score),[13],0.215
same,glycan array binding signal (z-score),[14],0.504
same,glycan array binding signal (z-score),[15],-1.8
same,glycan array binding signal (z-score),[16],0.866
same,glycan array binding signal (z-score),[17],-0.338
same,glycan array binding signal (z-score),[18],-1.37
same,glycan array binding signal (z-score),[19],-0.287
same,glycan array binding signal (z-score),[20],0.121
same,glycan array binding signal (z-score),[21],-0.38
same,glycan array binding signal (z-score),[22],1.3
same,glycan array binding signal (z-score),[23],-0.079
same,glycan array binding signal (z-score),[24],1.25
same,glycan array binding signal (z-score),[25],-0.22
same,glycan array binding signal (z-score),[26],-0.103
same,glycan array binding signal (z-score),[27],-0.093
same,glycan array binding signal (z-score),[28],1.29
same,glycan array binding signal (z-score),[29],-0.902
same,glycan array binding signal (z-score),[30],0.931
same,glycan array binding signal (z-score),[31],0.129
same,glycan array binding signal (z-score),[32],-0.946
same,glycan array binding signal (z-score),[33],0.049
same,glycan array binding signal (z-score),[34],-0.572
same,glycan array binding signal (z-score),[35],0.411
same,glycan array binding signal (z-score),[36],-0.971
same,glycan array binding signal (z-score),[37],-0.327
same,glycan array binding signal (z-score),[38],0.476
same,glycan array binding signal (z-score),[39],-0.58
same,glycan array binding signal (z-score),[40],-0.663
same,glycan array binding signal (z-score),[41],0.698
same,glycan array binding signal (z-score),[42],-0.922
same,glycan array binding signal (z-score),[43],0.829
same,glycan array binding signal (z-score),[44],0.81
same,glycan array binding signal (z-score),[45],-1.83

# Given as tab-separated lines: part of the list above.
binder	measurement	setting	value
KILRGVCKKIMRTFLRRISKKILTGKK [C7A (Sus scrofa)]	glycan array binding signal (z-score)	[24]	1.25
same	glycan array binding signal (z-score)	[25]	-0.22
same	glycan array binding signal (z-score)	[26]	-0.103
same	glycan array binding signal (z-score)	[27]	-0.093
same	glycan array binding signal (z-score)	[28]	1.29
same	glycan array binding signal (z-score)	[29]	-0.902
same	glycan array binding signal (z-score)	[30]	0.931
same	glycan array binding signal (z-score)	[31]	0.129
same	glycan array binding signal (z-score)	[32]	-0.946
same	glycan array binding signal (z-score)	[33]	0.049
same	glycan array binding signal (z-score)	[34]	-0.572
same	glycan array binding signal (z-score)	[35]	0.411
same	glycan array binding signal (z-score)	[36]	-0.971
same	glycan array binding signal (z-score)	[37]	-0.327
